Laboratory results published in patent US9573967B2, “N-heterocyclic carbene gold complexes with anticancer properties and methods of use thereof” (KING FAHD UNIVERSITY OF PETROLEUM AND MINERALS, priority 2015, dated 2017).

Experiments:
[1] = test system: A549 (human lung carcinoma) cell line; assay: In vitro cytotoxicity, MTT assay, A549; format: cell-based; conditions: 24 h incubation with complex, read-out: IC50 values against A549 cancer cell line
Protocol: (§1) The in vitro cytotoxicity tests were carried out for the gold(I) precursor, labeled as complex 0 and the three synthesized complexes labeled as complex 1, 2 and 3 and compared with cisplatin (standard classical anticancer drug) against three human cancer cell lines, HCT15, HeLa and A549 using MTT assay. The dose dependent cytotoxic effect was obtained by the stipulated increase in concentrations of cisplatin and gold complexes 0-3 against the fixed number of human cancer cells. The IC50 concentration of cisplatin and complexes 0-3 for different human cancer cell lines was obtained from a curve between compound concentration and percentage viability of cells (FIGS. 5-10, Table 6).
(§2) In phase contrast micrographs, a decreasing cell density and deformed cellular morphology could be observed with increasing concentration of complexes 0-3 (FIGS. 11-13). […] The IC50 concentrations of gold complexes were calculated from a separate curve between complex concentration and % viability of cells plotted in Microsoft Excel 2007 (graphs not shown) using MTT assay data and explained by logarithmic regression equations (equations not shown).
(§3) The metal precursor (complex 0) and the three synthesized compounds 1-3 were evaluated for their in vitro cytotoxic activity against HCT15 (human cancer), HeLa (human cervical cancer) and A549 (human lung carcinoma) cell lines. […]

[2] = test system: HeLa (human cervical cancer) cell line; assay: In vitro cytotoxicity, MTT assay, HeLa; format: cell-based; conditions: 24 h incubation with complex, read-out: IC50 values against HeLa cancer cell line
Protocol: as §1, §2, §3

Question: How did the IC50 [1] turn out when `N.N.[Cl][Pt][Cl]` [Cisplatin, cisplatin] was run?
Answer: The IC50 was 41.6 µM.

Question: What about the IC50 [2] of the same compound?
Answer: Its IC50 is 19.4 µM.
